Assay results published in patent publication US8476408B2, “Unacylated ghrelin and analogs as therapeutic agents for vascular remodeling in diabetic patients and treatment of cardiovascular disease” (Alize Pharma SAS, priority 2008, dated 2013).

Tested on: CAC membranes
Test: Saturation binding experiment on CAC membranes (Scatchard analysis)
Set-up: species or system human

1-NH2Gly-Ser-Ser-Phe-Leu-Ser-Pro-Glu-His-Gln-Arg-Val-Gln-Gln-Arg-Lys-Glu-Ser-Lys-Lys-Pro-Pro-Ala-Lys-Leu-Gln-Pro-Arg-28 (GSSFLSPEHQRVQQRKESKKPPAKLQPR; listed as Homo sapiens) [UAG]
Hill coefficient (Scatchard analysis): ~1
concentration at which specific binding reaches a maximum (saturable binding, FIG. 5B): 2 nM
